Results as given in PubChem BioAssay AID1508600 (Functional Genomics Laboratory (NCATS/FGL), 2020).
Among all 53,000 sequences or so, about 3,700 (7%) were called active.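 Rule for the calls: active = gene knockdowns whose robust z-score for IL-1 alpha signal is at least 2 or at most -2, so actives lie on both sides; inactive = the rest.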 The list shows a part of the results.

assay: Components of the Cytosolic LPS Sensing Pathway: Gene Identification via Genome-wide siRNA Screen; conditions: RAW264.7 macrophages, IL-1a HTRF, actives lie on both sides, screened at 100 nM (by protocol), cells primed 5 h with Pam3CSK4 first;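 note: robust z of the log signal after scaling to non-targeting control siRNA wells of the plate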
In short: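 Using IL-1a HTRF as read-out, the screen measured release from RAW264.7 cells after 48h siRNA knockdown (100 nM), 5 h Pam3CSK4 priming and 24 h cytosolic LipidA. Values were expressed relative to negative-control wells as robust z-scores.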

Sequence	z-score
GGUGCUUCUAAACUCAGAGTT against Spg20	inactive: 0.482
GGGAAAGGAAGUUGUUUUGTT against Epha2	inactive: 0.878
CCAGGUAUUCUGAUAUCAGTT against Cd209d	inactive: 0.713
GGACUGUUCAUUGAUUGUATT against Sugct	inactive: 1.47
GCCUUGAUCCUACUGUAACTT against Amigo3	active: 2.12
GGACUAUCUAGCAUAUACUTT against E130006D01Rik	inactive: 0.788
GGCUGUUUUUGCCGGUAUCTT against Teddm3	inactive: 1.58
GGGACUAAUUCCAAUUUCATT against Pomt1	inactive: 0.279
GGGAUCAUAAAGAUAACUUTT against Fasn	active: 2.2
GGCCCUUCUACAGAAGUUCTT against Pld4	inactive: -0.0788
GGAGCAUAGAAAAGACAAUTT against Grk2	active: 2.69
GGCAGUGGAGCUGGACAAATT against Nkx2-5	active: 2.45
GGCCAAGUUUGACAAGGAATT against Nap1l5	active: 2.32
GCGGGUCAUAAAUCUGAUUTT against Aldh3a1	inactive: 1.11
GCUGAAACGAUUUCUUACUTT against Runx1t1	inactive: 0.248
GGAGGACAUAAAAUAUCUATT against Trim17	inactive: -0.0172
GGCGGUUCAAAUGUCCUCATT against Fut2	active: -2.02
GCCAUUUUUGAUGGUAUACTT against Atp6v1a	inactive: -0.411
AGCCAAAGAAUGCAAAACATT against Snrpn	inactive: -1.13
AGCUAAAAGAUCAUUGGAGTT against Ear10	inactive: 0.358
GGAAGCCAAACAGUUAUUUTT against Drosha	inactive: -1.08
AACAUGUCCAACCUAGGCATT against Lefty1	inactive: -1.44

Sequence	z-score
GCCAGUGUCCCUAAUAAGGTT against Ager	inactive: 0.2
GGAAUUCAUGGAUAAGAAGTT against Hnmt	inactive: 0.191
GGUGCACACAAUAAAUUAATT against Fcgr3	inactive: -0.173
GGUGUAUGAGUUUGAGUUUTT against Lacc1	inactive: -0.849
GCUAACGGUGUAACCAAGATT against Dennd2c	inactive: 1
GGAUUCUUGGCUUUAAGACTT against Smg7	inactive: 1.54
GGCUCGAAGGAAAUGAGUUTT against Dppa3	inactive: 1.28
CCUGUUCAUAUGUAGUGCATT against Cox16	inactive: -1.35
GCACAACUUUGAGGUGUGGTT against Plekha4	inactive: 0.292
GGUGUACCUACAGUUAUGGTT against Marchf8	inactive: 0.0777
GCAGCUAGCAUAUAAUAACTT against Il21r	inactive: -0.186
GGUACCAUAUGAGAGCUAATT against Tsr2	active: 2.7
AUUGUAGCAGUGAAUUGGATT against Pdia6	inactive: -0.121
GUGUCCUGACCAGGGUUCUTT against Gpr31b	inactive: 0.311
CCAAAUGUAACUGGUGUAATT against Aif1l	inactive: -0.69
UGUGGUCUUAGAAUCUAGCTT against Tdpoz3	active: 4.49
GCACAAUCCGGUCAACAUGTT against Zbp1	inactive: 1.22
GGCCUUUUCUCAUCUCUGGTT against Igfals	inactive: -1.57
GCAGCAGAAUGCUAGAAAATT against Mtrf1	inactive: 0.649
GGCUAUGGGAAAUAUAAGATT against Pde1b	inactive: 0.00984
UGGUUGUAUUAUUCUGUUGTT against Defb38	inactive: 0.188
GCCUUAGAGCUUGUAACUATT against Nbl1	inactive: -1.68

Two entries from above, as comma-separated lines.
Sequence,z-score
GGCUGUUUUUGCCGGUAUCTT against Teddm3,inactive: 1.58
GGGACUAAUUCCAAUUUCATT against Pomt1,inactive: 0.279

A second format for some results above:
Sequence | z-score
AUUGUAGCAGUGAAUUGGATT against Pdia6 | inactive: -0.121
GUGUCCUGACCAGGGUUCUTT against Gpr31b | inactive: 0.311

(listing goes on)

Sequence	z-score
GGUGAACAAGAAAGAAGUCTT against Rpl3	inactive: -0.665
CCCUCGGUGCCUAAUAAAUTT against Hsd17b10	inactive: -0.0731
GCUUAAUUUCAUUUCAAGGTT against B3gnt5	inactive: 0.496
CGUAUUCCCAAAUGUGAUGTT against Pcbp3	inactive: -0.276
GCUCUUUCAUGUUAUUGAUTT against Dicer1	inactive: -1.22
CCUAACUGGGAUCGUAUUATT against Med29	inactive: -1.55
GGGCUUAAUCCAGGCCUUATT against Fam118b	inactive: 1.14
GGAAUACAAAUUCAAGAUCTT against Vamp5	inactive: -0.82
GGACAAAAUCCUGCACAUUTT against Dnajb5	inactive: -0.606
GCUUGUAGUUAAGGUGCACTT against Apbb1ip	inactive: 0.653
GGAAAUAUAUCCCGGACAGTT against Sirt1	inactive: -0.433
GGGAAUUCUCCUUGAGAAUTT against Prdm9	inactive: -0.651
GGACAAAUACCACAAGUUGTT against Simc1	active: 2.13
CCACCUUUUUCUACAAAGUTT against Slc16a9	inactive: 0.256
GCACCCUAGAGGUAAAAGATT against Taf12	active: -2.95
GGAGAUGAAAUCUACAAAUTT against Igfbp1	inactive: -0.592
AGUGAAGUAUCCAGGGUGUTT against Tex18	inactive: -0.427
GGUCAUUUUUGAGGUGCUGTT against Grin2d	inactive: -0.479
GGAGAUCAUAUGAUUGAGATT against Plscr2	inactive: -0.837
GCUGGUAGCCCGACAUAAUTT against Daam2	inactive: 0.77
GGUUUGUUAUGCUAUUGUATT against Defa4	inactive: 0.705
GGUAAUUUUGGCUCUUGGATT against Eif4a2	inactive: -1.53

4 entries from above, with each value named:
CCCUCGGUGCCUAAUAAAUTT against Hsd17b10
  z-score: inactive: -0.0731
GCUUAAUUUCAUUUCAAGGTT against B3gnt5
  z-score: inactive: 0.496
GCUCUUUCAUGUUAUUGAUTT against Dicer1
  z-score: inactive: -1.22
GGACAAAAUCCUGCACAUUTT against Dnajb5
  z-score: inactive: -0.606

More results follow.

Sequence	z-score
UGUAUCUGCUUACAGUAGCTT against Olfr523	inactive: 0.15
GGAUCCUCAACAAAGAAGATT against H2-DMb1	inactive: 0.972
GCUACAAUAAUGGUCAGUCTT against Zfp36l3	inactive: -1.16
GGGAGGGAAUAGUCAAAAATT against Timm17b	inactive: 0.909
GGAUCUCAUGUUGAUAUAATT against Rpp40	inactive: -0.589
GCACUAUACCGAAAAGCGCTT against Ppid	inactive: -0.178
GCAGGGUGAGUUGUUAAAUTT against Marchf11	inactive: 0.328
GAUUCUUUGUAGGGAGAUATT against Olfr26	inactive: 1.27
CGAAUACAUUAAGGAGAACTT against Relb	inactive: -0.316
GCACAACCGAUUUUAUCACTT against BC005624	inactive: 0.322
GGAUAUCGAUUUAAGAGACTT against Adam2	inactive: 1.25
GGGCUUAAGGCUUAAGACATT against Cgnl1	inactive: -0.785
GGAAGUAUGGGAUUAUGUGTT against Scpep1	inactive: -0.933
GGCCACGGAGCUCUUUGUUTT against Chrac1	inactive: -0.266
CCAGUUCUCUCGAAGACUUTT against Hoxb1	inactive: 0.278
GGAGUGCAAAAAGAGUUGCTT against Abce1	inactive: -0.781
GGUCCACAUUUUCGGCUAGTT against Kctd11	inactive: 0.439
GGAGAUGAAAUUGUUUAUCTT against Bpgm	inactive: -0.0841
GGCAAAGCAAGGUUGCUGATT against Ormdl3	inactive: 1.16
GCAGAAAUACUGGCGAAUATT against Gm9725	inactive: 0.607
GGAAUUUCAUACAAACUCUTT against Fnip1	inactive: 0.997
GCCGAUUUUUGGGAAUAAATT against Ptpn20	inactive: 0.0604

Sequence	z-score
GGAAUUCACCUUUAAGAUGTT against Gkn2	inactive: 0.44
GGUAGACCAGCUUGCUAAUTT against Plxnb1	inactive: -0.754
GGGAUUACUUGUAACAUCATT against Abcc2	inactive: 0.415
GCUUUUCGCCCUGUGCUUATT against Smgc	inactive: -1.21
GGGUUACAAGCUUAGCUCCTT against Pcdhga5	inactive: -0.0908
GGAACUUCAUAAACACUUGTT against Oas3	inactive: -0.545
GGUGAACGAUGUCAACUUUTT against Dvl1	inactive: -0.545
CCUGUGUCAAUCCUGUGCATT against Ifitm7	inactive: 0.0113
GGUAAUCUAUGAGACUCCATT against Gng5	inactive: -1.43
GGCCAUCAGCAAAGGAUGCTT against C130074G19Rik	inactive: 1
CGUGUUCUUAAUUUGCUUUTT against Rac1	inactive: 1.17
GGUGAAAGGAGUCAGUCUATT against Agtrap	inactive: -0.013
GGAUUUUGUGAAUAAAUGCTT against Map2k1	inactive: 1.31
GCAUAUGGACUUUCUGUCATT against Iws1	inactive: -0.157
CGCAGUGACCUCAUUAACGTT against Klf7	inactive: -0.437
CCUUCUCCCAUAAGGCCAATT against Zfp1	inactive: 1.14
GGAAGACGAAGAGCUGACATT against Psen1	inactive: -0.853
CCCAGAUCCUUACUGACUGTT against Tada3	inactive: -0.839
CCCGUGAAAACAGUUGUCATT against Scly	inactive: -0.201
